Test results: article PMC7809260 (Scientific Reports, 2021)
Read-outs that look alike come from different tables or passages of the source.

System: JumpIn-DAT cells
Conditions: variable slope model

Cl.NCCc1ccc(O)c(O)c1 [Dopamine, dopamine hydrochloride]
slope ± SEM (pseudo-Hill slope of dopamine concentration-effect curve) (JumpIn-DAT +dox + 10 µM GBR12909): 0.8 ± 0.1 | slope ± SEM (pseudo-Hill slope of dopamine concentration-effect curve) (JumpIn-DAT +dox + 10 µM cocaine): 0.7 ± 0.1 | slope ± SEM (pseudo-Hill slope of dopamine concentration-effect curve) (JumpIn-DAT –dox): 0.8 ± 0.1
